Data on 41 molecules can be found in PubChem BioAssay AID2685 (National Center for Advancing Translational Sciences (NCATS), 2010).

This is one part of the list. These are further read-outs of the screen, such as a control signal, another cell line or another target. No call is given for them. The list favours compounds with an active or inconclusive main result. Potencies come from curve fits of mixed quality, noted in brackets.

This experiment is described as follows: qHTS Assay for Lipid Storage Modulators in Drosophila S3 Cells.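 As to cell number change: cells counted by Cell Tracker Red CMTPX staining in the red channel.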 The note with it: BODIPY lipid droplet fluorescence, 18-24 h; for cell number change: measured here: cell count max response, cells fed with added oleic acid. In outline:
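Drosophila S3 cells loaded with oleic acid (400 uM, as added) and compounds at several concentrations; lipid droplets imaged by 488-nm laser-scanning cytometry, 500–530 nm intensity and object ratio to cell channel. Percent activity normalized to 20 uM Triacsin C.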

[1] abbreviates: measured here: lipid fluorescence (Fed channel) AC50, cells fed with added oleic acid.
[2] abbreviates: measured here: cell number channel AC50, cells fed with added oleic acid.

For the molecule `Cc1ccc(OCC(=O)Nc2ccccc2N2CCCC2)c(C)c1`, the cell number change is -16.3%. Further, under setting [1], the AC50 (in general, the concentration at which the activity in the assay is half-maximal) was 23.1 µM [falling, single point].
Consider `O=S(=O)(NCc1ccc(Cl)cc1)c1cccc2cccnc12`, for which the cell number change came to 6.27%.
Consider `O=C(CCCCCN1C(=O)c2ccccc2C1=O)Nc1ccccc1`, for which the AC50 under setting [2] was 1.84 µM [rising, partial curve] and the AC50 under setting [1] was 2.06 µM [rising, partial curve].
On to `Cc1ccc(Cn2ccsc2=NC(=O)COC(=O)C(C)C)cc1`, for which the cell number change was determined as 22.7%.
With `Cc1ccc(-c2noc(CCC(=O)N3CCCC3)n2)cc1`, the cell number change was determined as 32.5%. The AC50 under setting [2] was 29.1 µM [rising, single point].
On to `CCOc1ccc(S(=O)(=O)N2CCN(CC)CC2)cc1NC(=O)c1ccccc1F`, for which the cell number change is -34.2%. For the same molecule, the half-maximal activity concentration (AC50) under setting [2] was 29.1 µM [falling, partial curve, poor fit].
In the case of `O=C(NCC1CCN(Cc2ccccc2F)CC1)Nc1cc(F)ccc1F`, the cell number change was -20.8%.
For `Cc1nn(CC(=O)N2CCN(c3cccc(C(F)(F)F)c3)CC2)c(=O)c2cccn12`, the half-maximal activity concentration (AC50) under setting [1] is 6.51 µM [falling, single point].
`S=C(Nc1ccc(Cc2ccncc2)cc1)Nc1cccc(Cl)c1`: the cell number change is 38.6%. The half-maximal activity concentration (AC50) under setting [2] was 5.17 µM [rising, full curve, poor fit].
`O=C(COc1ccc(Cl)cc1)c1ccc(O)cc1O`: the cell number change is -5.39%.
For `O=C(Nc1ccc(NC(=O)c2ccccc2)nc1)c1ccncc1`, the cell number change was -27.6%. The AC50 under setting [1] is 6.51 µM [falling, single point].
Take `Oc1ccc(C2C[C@H]3CC[C@@H]2C3)cc1O` (some centres undefined): the cell number change was -23.6%.
Consider `Cc1ccccc1NC(=O)Cc1nc(CCl)cs1`, for which the cell number change worked out at 18.2%. Also, the AC50 under setting [1] was 18.4 µM [rising, single point].
On to `Cc1ccc(OCc2cc(C(=O)N3CCc4sccc4C3)no2)cc1C`, for which the cell number change is -2.02%. Moreover, the half-maximal activity concentration (AC50) under setting [1] was 29.1 µM [rising, single point].
`OC(COc1ccc(Cl)cc1Cl)CN1CCc2ccccc2C1` (centres undefined): the cell number change is 12.4%.
Take `Cc1ccc(S(=O)(=O)N2CCN(C(=O)c3cc(C4CC4)nc4c3cnn4C(C)C)CC2)cc1`: the cell number change was -43%. Also, the half-maximal activity concentration (AC50) under setting [2] is 32.6 µM [falling, single point]. Moreover, the concentration at half-maximal activity (AC50) under setting [1] is 2.31 µM [falling, partial curve].
With `Cn1c(CSc2nc3ccc(Br)cc3[nH]2)nc2ccccc21`, the cell number change was 0.0604%. In addition, the concentration at half-maximal activity (AC50) under setting [1] was 0.291 µM [rising, full curve, poor fit].
Turning to `NC(=O)C1CCCN(C(=O)c2ccc3oc(Cc4ccc(Cl)cc4)nc3c2)C1` (centres undefined), the cell number change came to 2.09%. For the same molecule, under setting [1], the half-maximal activity concentration (AC50) was 16.4 µM [rising, single point].
For `CC1C(=O)N2CCCc3cc(NC(=O)COc4ccc(Cl)cc4)cc1c32` (centres undefined), the AC50 is 1.03 µM [rising, partial curve] under setting [2] and 0.411 µM [rising, full curve, poor fit] under setting [1].
`Cc1cc(NC(=O)c2cc(-c3cccs3)nc3ccccc23)no1`: the cell number change came to 43.1%. For the same molecule, the AC50 under setting [2] is 18.4 µM [rising, single point].
Take `CS(=O)(=O)N1CCC(C(=O)c2cccc(Cl)c2)CC1`: the cell number change was -0.242%.
For the molecule `CC(=O)N1CCc2cc(S(=O)(=O)Nc3ccccc3N3CCN(C)CC3)ccc21`, the AC50 was 4.61 µM [falling, single point] under setting [2] and 3.26 µM [rising, partial curve] under setting [1].
With `CCOC(=O)c1cc2ccccc2n1CCN(CC)CC`, the cell number change was 15%. Moreover, the concentration at half-maximal activity (AC50) under setting [1] is 29.1 µM [falling, single point].
Turning to `Cc1cccc2c(=O)n3c(nc12)CCCCC3`, the cell number change is -1.16%.
With `CCOc1ccc(OCC)c(NC(=O)Nc2ccc3c(c2)N(C)C(=O)CS3)c1`, the cell number change was 11.8%. Under setting [2], the half-maximal activity concentration (AC50) was 0.651 µM [rising, partial curve, poor fit]. Also, the AC50 under setting [1] is 1.64 µM [rising, partial curve].
Take `O=c1cc(CO)occ1OCc1c(F)cccc1Cl`: the cell number change was -14.7%. The half-maximal activity concentration (AC50) under setting [2] was 6.51 µM [rising, single point].
Consider `CC(=O)N1CCCc2cc(S(=O)(=O)Nc3ccccc3C)ccc21`, for which the cell number change was 9.68%. The concentration at half-maximal activity (AC50) under setting [1] was 0.326 µM [rising, full curve, poor fit].
For the molecule `CCOC(=O)N1CCN(CCC(=O)Nc2ccc(F)c(F)c2)CC1`, the cell number change worked out at 1.01%. Also, under setting [1], the AC50 is 6.51 µM [rising, single point].
For `O=C(O)COc1ccccc1/C=N/NC(=O)c1cc(-c2ccc(Cl)cc2)nc2ccccc12`, the cell number change stood at 8.72%. Also, the AC50 under setting [1] was 5.17 µM [rising, partial curve].
As for `O=C(CSc1ccsc1[N+](=O)[O-])N1CCN(c2ccccc2)CC1`, the cell number change was -3.3%. Moreover, the AC50 under setting [1] was 0.92 µM [rising, full curve, poor fit].
In the case of `CCc1ccc(S(=O)(=O)N/N=C(/C)c2ccncc2)cc1`, the cell number change came out at 5.49%. Moreover, the AC50 under setting [1] was 1.84 µM [rising, partial curve, poor fit].
On to `COc1ccc(/C=N/NC(=O)COc2cccc3ccccc23)c(C(=O)O)c1OC`, for which the cell number change is -21.1%. The half-maximal activity concentration (AC50) under setting [1] is 0.731 µM [falling, full curve, poor fit].
Regarding `COc1ccc(C)cc1NC(=O)c1cc2ccccc2cc1OCC(=O)NCc1ccco1`, the cell number change is -45.3%.
For `CCOC(=O)CSc1nnc(CSc2nc3sc4c(c3c(=O)[nH]2)CCC4)n1-c1ccccc1`, the cell number change was -79%. Also, the AC50 under setting [2] was 1.84 µM [falling, partial curve]. The concentration at half-maximal activity (AC50) under setting [1] is 0.651 µM [falling, single point].
Take `COc1ccc(CC(=O)N/N=C/c2ccc(-c3cccc(C(=O)O)c3)o2)cc1OC`: under setting [1], the AC50 was 0.103 µM [falling, full curve, poor fit].
`C=CCn1cc(C(=O)N2CCN(CC)CC2)c(=O)c2cc(S(=O)(=O)N(CC)CC)ccc21`: the cell number change is 38.3%. Besides, the half-maximal activity concentration (AC50) under setting [2] was 32.6 µM [rising, single point].
For `CCOc1ccccc1NC(=O)Nc1ccncc1`, the half-maximal activity concentration (AC50) under setting [1] is 6.31 µM [falling, single point].
As to `O=C(O)c1cccc(S(=O)(=O)Nc2ccccc2Cc2ccccc2)c1`, the cell number change came to 6.76%. In addition, the AC50 under setting [1] was 29.1 µM [falling, single point].
With `O=C(CCSc1ccccn1)c1ccccc1`, the cell number change amounted to 42.3%. For the same molecule, the concentration at half-maximal activity (AC50) under setting [2] is 1.03 µM [rising, full curve]. For the same molecule, under setting [1], the AC50 is 1.46 µM [rising, partial curve, poor fit].
`COc1ccc(-c2c(NC(=O)c3ccco3)oc3ccccc3c2=O)cc1OC`: the cell number change was determined as 18.9%. In addition, the AC50 under setting [1] is 29.1 µM [rising, single point].
As for `COc1ccc2[nH]c(C(=O)NCc3ccccc3)c(C)c2c1`, the cell number change worked out at 26.1%. Further, the concentration at half-maximal activity (AC50) under setting [2] was 2.31 µM [rising, full curve, poor fit].
